Laboratory results from article PMC7334785.
Results are given in words; binding and its absence hold for the method and conditions named. For part of these data: Binding seen in cells or lysates may run through a third protein. Some results given as binding are weak or reduced against the parent protein; the word gives no strength. For part of these data: Tags and fused reporters may be left off the sequences shown. One block for each molecule: values may come before it.

Sequences of proteins named here, by UniProt entry; tags and fusion partners are left off.
UniProt P46940: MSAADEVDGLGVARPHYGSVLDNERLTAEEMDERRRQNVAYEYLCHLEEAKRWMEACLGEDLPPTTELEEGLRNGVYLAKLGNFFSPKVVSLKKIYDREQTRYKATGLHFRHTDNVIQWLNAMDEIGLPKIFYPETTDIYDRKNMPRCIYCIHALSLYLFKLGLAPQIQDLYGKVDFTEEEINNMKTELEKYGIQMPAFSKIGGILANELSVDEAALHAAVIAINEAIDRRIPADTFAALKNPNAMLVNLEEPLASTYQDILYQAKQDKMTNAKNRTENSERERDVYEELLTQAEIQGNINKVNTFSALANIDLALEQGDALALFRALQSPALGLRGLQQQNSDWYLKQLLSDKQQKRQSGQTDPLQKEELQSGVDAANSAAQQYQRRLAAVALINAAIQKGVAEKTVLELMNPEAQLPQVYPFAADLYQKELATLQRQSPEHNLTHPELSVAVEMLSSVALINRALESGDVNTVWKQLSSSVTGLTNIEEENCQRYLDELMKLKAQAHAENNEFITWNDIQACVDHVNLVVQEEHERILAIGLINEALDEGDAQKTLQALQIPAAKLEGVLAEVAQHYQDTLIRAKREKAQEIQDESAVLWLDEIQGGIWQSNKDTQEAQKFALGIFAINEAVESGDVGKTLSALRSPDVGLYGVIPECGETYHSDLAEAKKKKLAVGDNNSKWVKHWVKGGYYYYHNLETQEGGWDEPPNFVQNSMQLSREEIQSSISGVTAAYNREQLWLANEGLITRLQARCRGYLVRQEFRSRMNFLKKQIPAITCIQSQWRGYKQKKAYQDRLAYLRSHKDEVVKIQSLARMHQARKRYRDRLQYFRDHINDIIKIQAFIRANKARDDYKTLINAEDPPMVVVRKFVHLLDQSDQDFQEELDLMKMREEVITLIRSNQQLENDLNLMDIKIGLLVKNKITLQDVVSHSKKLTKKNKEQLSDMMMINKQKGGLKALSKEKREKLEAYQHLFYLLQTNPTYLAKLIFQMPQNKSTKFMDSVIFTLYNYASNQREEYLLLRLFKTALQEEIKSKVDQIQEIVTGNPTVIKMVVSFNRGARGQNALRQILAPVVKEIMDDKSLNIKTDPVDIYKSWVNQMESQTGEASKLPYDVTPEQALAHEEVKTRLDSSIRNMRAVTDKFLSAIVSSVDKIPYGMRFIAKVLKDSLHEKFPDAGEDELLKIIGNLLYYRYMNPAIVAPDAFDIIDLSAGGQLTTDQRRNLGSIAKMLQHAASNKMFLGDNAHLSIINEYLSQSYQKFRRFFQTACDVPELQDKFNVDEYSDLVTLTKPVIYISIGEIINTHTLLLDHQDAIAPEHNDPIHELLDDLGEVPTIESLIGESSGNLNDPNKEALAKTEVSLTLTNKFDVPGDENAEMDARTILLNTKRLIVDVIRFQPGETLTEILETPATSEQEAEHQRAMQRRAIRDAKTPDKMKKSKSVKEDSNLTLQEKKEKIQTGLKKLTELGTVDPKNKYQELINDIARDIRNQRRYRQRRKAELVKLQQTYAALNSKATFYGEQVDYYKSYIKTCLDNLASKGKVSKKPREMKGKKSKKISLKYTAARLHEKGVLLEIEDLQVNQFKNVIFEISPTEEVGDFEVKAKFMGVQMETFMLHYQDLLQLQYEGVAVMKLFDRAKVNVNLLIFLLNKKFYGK

Tests used:
[1] = target: T1, Borealin (human (endogenous in HeLa)) (UniProt Q53HL2); test: co-IP; endogenous proteins of HeLa lysate (BC100 buffer) precipitated with anti-Borealin or anti-IQGAP1 antibody and protein A/G beads, 4°C; western blot
T1 sequence: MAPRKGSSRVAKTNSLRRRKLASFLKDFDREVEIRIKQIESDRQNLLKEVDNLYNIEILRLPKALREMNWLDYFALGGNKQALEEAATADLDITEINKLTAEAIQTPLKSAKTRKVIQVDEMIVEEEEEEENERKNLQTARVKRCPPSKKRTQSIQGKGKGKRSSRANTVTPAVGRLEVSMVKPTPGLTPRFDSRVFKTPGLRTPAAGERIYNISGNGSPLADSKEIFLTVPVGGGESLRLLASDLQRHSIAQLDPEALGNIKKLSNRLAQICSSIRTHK

GST-IQGAP1 (human) = GST-IQGAP1 (human) (UniProt P46940); test: pull-down; GST-IQGAP or GST immobilised on Glutathione Sepharose 4B, incubated with recombinant His-Borealin 3 h at 4°C; 25 mM Tris-HCl pH 7.5, 10% glycerol, 0.1% NP-40, 150 mM NaCl, 1 mM EDTA, 1 mM DTT; Coomassie and western blot with anti-His; both purified
[2] = target: IQ domain-containing GTPase-activating protein 1 (human (endogenous in HeLa)) (UniProt P46940); test: co-IP; endogenous proteins of HeLa lysate (BC100 buffer) precipitated with anti-Borealin or anti-IQGAP1 antibody and protein A/G beads, 4°C; western blot

binding [1]: binds
Molecule: IQ domain-containing GTPase-activating protein 1 (from UniProt P46940 1-1657)

binding (GST-IQGAP1 (human)): binds
B1: His-Borealin (protein, UniProt Q53HL2 1-280)
chain: T1 sequence

binding [2]: binds
B2: Borealin (protein, UniProt Q53HL2 1-280)
chain: T1 sequence
